In paper PMC9166893 one finds binding data, which are given here for three molecules.

The chains behind the UniProt entries cited, without tags or fusion partners.
UniProt P19139: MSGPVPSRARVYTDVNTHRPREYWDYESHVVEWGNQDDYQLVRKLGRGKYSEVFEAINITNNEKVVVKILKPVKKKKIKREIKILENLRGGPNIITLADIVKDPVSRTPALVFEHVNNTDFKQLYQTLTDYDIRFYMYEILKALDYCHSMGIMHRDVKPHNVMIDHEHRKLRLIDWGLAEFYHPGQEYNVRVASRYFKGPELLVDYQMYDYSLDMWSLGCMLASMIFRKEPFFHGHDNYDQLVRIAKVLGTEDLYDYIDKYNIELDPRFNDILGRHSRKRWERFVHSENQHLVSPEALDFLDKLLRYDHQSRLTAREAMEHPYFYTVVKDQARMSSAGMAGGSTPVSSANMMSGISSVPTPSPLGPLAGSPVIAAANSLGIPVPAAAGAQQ
UniProt P68400: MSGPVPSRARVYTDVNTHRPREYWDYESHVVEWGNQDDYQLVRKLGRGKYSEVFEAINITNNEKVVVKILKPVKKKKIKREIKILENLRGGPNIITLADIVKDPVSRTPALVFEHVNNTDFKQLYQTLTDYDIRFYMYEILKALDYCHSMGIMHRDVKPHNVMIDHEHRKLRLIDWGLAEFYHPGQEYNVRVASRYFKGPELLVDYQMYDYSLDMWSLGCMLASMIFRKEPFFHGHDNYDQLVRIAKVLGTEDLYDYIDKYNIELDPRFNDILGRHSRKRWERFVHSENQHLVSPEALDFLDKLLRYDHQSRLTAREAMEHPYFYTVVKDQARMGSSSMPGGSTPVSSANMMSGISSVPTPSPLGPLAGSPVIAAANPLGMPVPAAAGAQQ

Experiment [1] has as its target protein kinase CK2α, endogenous in rat H9c2-CK2α-44 myoblasts (rat (endogenous in H9c2)) (UniProt P19139). Kind of experiment: co-IP; whole cell lysate of control H9c2-CK2α-44 cells, immunoprecipitation with rabbit polyclonal anti-CK2α serum or goat anti-CK2α antibody, Western blot. A general note: In western blotting, separated proteins are transferred to a membrane and probed.

Experiment [2] has as its target protein kinase CK2α, endogenous in human U2OS cells (human (endogenous in U2OS)) (UniProt P68400). Kind of experiment: co-IP; whole cell lysate of U2OS cells, immunoprecipitation with anti-CK2α antibodies as in Fig. 5H, Western blot.

No constants are given. Whether binding was seen depends on the method and setting. Binding seen in cells or lysates may run through a third protein. Some binding calls cover weakened binding; strength is not graded here.

B1: checkpoint kinase CHK1, endogenous in rat H9c2-CK2α-44 myoblasts (enzyme, UniProt Q91ZN7 1-476)
chain: MAVPFVEDWDLVQTLGEGAYGEVQLAVNRITEEAVAVKIVDMKRAIDCPENIKKEICINKMLNHENVVKFYGHRREGNIQYLFLEYCSGGELFDRIEPDIGMPEQDAQRFFHQLMAGVVYLHGIGITHRDIKPENLLLDERDNLKISDFGLATVFRHNNRERLLNKMCGTLPYVAPELLKRKEFHAEPVDVWSCGIVLTAMLAGELPWDQPSDSCQEYSDWKEKKTYLNPWKKIDSAPLALLHKILVENPSARITIPDIKKDRWYNKPLNRGAKRPRATSGGMSESSSGFSKHIHSNLDFSPINSGSSEENVKFSSSQPEPRTGLSLWDTGPSNVDKLVQGISFSQPTCPDHMLVNSQLLGTPGSSQNPWQRLVKRMTRFFTKLDADKSYQCLKETFEKLGYQWKKSCMNQVTVSTMDRRNNKLIFKINLVEMDEKILVDFRLSKGDGLEFKRHFLKIKGKLSDIVSSQKVWFPVT
On to B1, for which, in experiment [1], the binding entry is given as “binds”.

B2: ATRIP, endogenous in human U2OS cells (protein, UniProt Q8WXE1 1-791)
chain: MAGTSAPGSKRRSEPPAPRPGPPPGTGHPPSKRARGFSAAAAPDPDDPFGAHGDFTADDLEELDTLASQALSQCPAAARDVSSDHKVHRLLDGMSKNPSGKNRETVPIKDNFELEVLQAQYKELKEKMKVMEEEVLIKNGEIKILRDSLHQTESVLEEQRRSHFLLEQEKTQALSDKEKEFSKKLQSLQSELQFKDAEMNELRTKLQTSERANKLAAPSVSHVSPRKNPSVVIKPEACSPQFGKTSFPTKESFSANMSLPHPCQTESGYKPLVGREDSKPHSLRGDSIKQEEAQKSFVDSWRQRSNTQGSILINLLLKQPLIPGSSLSLCHLLSSSSESPAGTPLQPPGFGSTLAGMSGLRTTGSYDGSFSLSALREAQNLAFTGLNLVARNECSRDGDPAEGGRRAFPLCQLPGAVHFLPLVQFFIGLHCQALQDLAAAKRSGAPGDSPTHSSCVSSGVETNPEDSVCILEGFSVTALSILQHLVCHSGAVVSLLLSGVGADSAAGEGNRSLVHRLSDGDMTSALRGVADDQGQHPLLKMLLHLLAFSSAATGHLQASVLTQCLKVLVKLAENTSCDFLPRFQCVFQVLPKCLSPETPLPSVLLAVELLSLLADHDQLAPQLCSHSEGCLLLLLYMYITSRPDRVALETQWLQLEQEVVWLLAKLGVQSPLPPVTGSNCQCNVEVVRALTVMLHRQWLTVRRAGGPPRTDQQRRTVRCLRDTVLLLHGLSQKDKLFMMHCVEVLHQFDQVMPGVSMLIRGLPDVTDCEEAALDDLCAAETDVEDPEVECG
With B2, in experiment [2], the binding entry was “no binding”.

B3: CDC45, endogenous in human U2OS cells (protein, UniProt O75419 1-566)
chain: MFVSDFRKEFYEVVQSQRVLLFVASDVDALCACKILQALFQCDHVQYTLVPVSGWQELETAFLEHKEQFHYFILINCGANVDLLDILQPDEDTIFFVCDTHRPVNVVNVYNDTQIKLLIKQDDDLEVPAYEDIFRDEEEDEEHSGNDSDGSEPSEKRTRLEEEIVEQTMRRRQRREWEARRRDILFDYEQYEYHGTSSAMVMFELAWMLSKDLNDMLWWAIVGLTDQWVQDKITQMKYVTDVGVLQRHVSRHNHRNEDEENTLSVDCTRISFEYDLRLVLYQHWSLHDSLCNTSYTAARFKLWSVHGQKRLQEFLADMGLPLKQVKQKFQAMDISLKENLREMIEESANKFGMKDMRVQTFSIHFGFKHKFLASDVVFATMSLMESPEKDGSGTDHFIQALDSLSRSNLDKLYHGLELAKKQLRATQQTIASCLCTNLVISQGPFLYCSLMEGTPDVMLFSRPASLSLLSKHLLKSFVCSTKNRRCKLLPLVMAAPLSMEHGTVTVVGIPPETDSSDRKNFFGRAFEKAAESTSSRMLHNHFDLSVIELKAEDRSKFLDALISLLS
B3: the binding result in experiment [2] is on record as “binds”.
